This experiment addresses TORC1 in the TOROID (Tor2 only), purified from KOG1-TAP ∆tor1 cells (S. cerevisiae (endogenous in S. cerevisiae cells) | S. cerevisiae) (UniProt P32600). Description: cryo-EM structure; TOROID filaments purified from KOG1-TAP ∆tor1 cells grown PDS (subunits co-purified from yeast); helical reconstruction, then signal subtraction and single particle analysis, 3.87 Å; both purified.

Protein sequences, listed by entry. Tags and fused reporters are not part of them. Lines headed by an entry give the natural chain unless they say otherwise; changes in a name come on top.
UniProt P32600: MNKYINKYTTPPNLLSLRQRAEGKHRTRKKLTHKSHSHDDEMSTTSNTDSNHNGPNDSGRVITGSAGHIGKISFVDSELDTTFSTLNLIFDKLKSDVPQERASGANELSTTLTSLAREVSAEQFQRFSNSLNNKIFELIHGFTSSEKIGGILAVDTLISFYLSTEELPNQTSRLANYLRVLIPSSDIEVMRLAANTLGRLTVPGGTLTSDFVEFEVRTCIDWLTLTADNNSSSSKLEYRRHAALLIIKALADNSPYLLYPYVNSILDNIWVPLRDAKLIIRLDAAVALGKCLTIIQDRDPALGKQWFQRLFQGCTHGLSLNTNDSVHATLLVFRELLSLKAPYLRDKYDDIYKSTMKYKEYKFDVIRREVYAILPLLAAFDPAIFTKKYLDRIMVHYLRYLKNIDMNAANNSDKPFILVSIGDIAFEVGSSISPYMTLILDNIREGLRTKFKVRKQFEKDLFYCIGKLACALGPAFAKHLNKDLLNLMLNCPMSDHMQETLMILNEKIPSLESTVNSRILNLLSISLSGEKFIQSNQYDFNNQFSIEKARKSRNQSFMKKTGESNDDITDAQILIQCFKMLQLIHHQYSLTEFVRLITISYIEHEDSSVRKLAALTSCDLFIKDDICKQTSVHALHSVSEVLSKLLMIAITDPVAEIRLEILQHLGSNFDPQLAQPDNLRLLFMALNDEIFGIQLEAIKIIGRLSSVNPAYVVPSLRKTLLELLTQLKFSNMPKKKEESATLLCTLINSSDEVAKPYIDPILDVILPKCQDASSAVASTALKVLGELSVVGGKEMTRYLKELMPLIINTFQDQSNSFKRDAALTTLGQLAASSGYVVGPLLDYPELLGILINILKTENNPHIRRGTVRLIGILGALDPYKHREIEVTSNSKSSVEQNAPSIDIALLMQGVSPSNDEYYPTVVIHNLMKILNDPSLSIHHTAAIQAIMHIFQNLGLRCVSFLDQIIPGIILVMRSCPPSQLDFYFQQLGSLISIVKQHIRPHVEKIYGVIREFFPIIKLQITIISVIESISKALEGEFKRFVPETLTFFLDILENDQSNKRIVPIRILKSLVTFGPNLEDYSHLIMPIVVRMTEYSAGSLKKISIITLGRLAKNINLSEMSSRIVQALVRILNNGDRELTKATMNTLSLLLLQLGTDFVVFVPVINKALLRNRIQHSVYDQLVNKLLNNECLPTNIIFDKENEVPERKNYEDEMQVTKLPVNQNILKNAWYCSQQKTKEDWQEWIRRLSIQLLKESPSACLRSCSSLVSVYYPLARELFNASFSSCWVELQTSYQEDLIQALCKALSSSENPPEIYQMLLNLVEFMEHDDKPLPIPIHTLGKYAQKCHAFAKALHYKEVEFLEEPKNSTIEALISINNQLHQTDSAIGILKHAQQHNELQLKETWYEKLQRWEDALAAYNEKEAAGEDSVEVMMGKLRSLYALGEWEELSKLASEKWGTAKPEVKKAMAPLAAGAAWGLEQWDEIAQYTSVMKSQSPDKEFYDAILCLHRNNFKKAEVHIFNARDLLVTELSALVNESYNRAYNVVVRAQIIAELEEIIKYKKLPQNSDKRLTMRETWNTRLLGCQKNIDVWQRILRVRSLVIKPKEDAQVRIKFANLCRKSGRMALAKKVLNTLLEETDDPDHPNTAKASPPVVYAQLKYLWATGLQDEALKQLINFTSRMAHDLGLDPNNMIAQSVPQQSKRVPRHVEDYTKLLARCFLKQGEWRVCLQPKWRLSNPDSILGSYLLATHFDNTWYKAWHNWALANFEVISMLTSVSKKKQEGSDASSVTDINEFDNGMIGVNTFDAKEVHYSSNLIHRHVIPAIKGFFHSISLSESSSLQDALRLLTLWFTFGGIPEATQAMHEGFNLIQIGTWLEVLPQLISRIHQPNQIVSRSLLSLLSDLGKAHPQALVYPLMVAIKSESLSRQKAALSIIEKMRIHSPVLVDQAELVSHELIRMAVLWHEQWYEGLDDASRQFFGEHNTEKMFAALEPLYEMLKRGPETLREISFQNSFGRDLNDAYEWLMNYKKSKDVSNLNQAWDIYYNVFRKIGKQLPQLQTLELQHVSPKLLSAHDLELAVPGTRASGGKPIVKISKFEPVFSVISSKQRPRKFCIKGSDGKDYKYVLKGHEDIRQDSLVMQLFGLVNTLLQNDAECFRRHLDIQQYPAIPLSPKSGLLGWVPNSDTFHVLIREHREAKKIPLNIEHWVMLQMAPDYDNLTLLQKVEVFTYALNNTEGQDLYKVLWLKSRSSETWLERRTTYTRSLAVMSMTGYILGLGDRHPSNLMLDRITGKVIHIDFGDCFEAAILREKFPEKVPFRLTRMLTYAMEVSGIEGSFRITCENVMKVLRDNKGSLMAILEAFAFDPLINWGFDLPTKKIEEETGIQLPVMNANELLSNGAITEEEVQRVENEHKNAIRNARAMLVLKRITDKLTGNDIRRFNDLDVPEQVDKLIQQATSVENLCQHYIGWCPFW

No constants are given. Whether binding was seen depends on the method and setting. Some entries that bind do so weakly or less than the wild type.

On to “TORC1 in the TOROID (Tor2 only), purified from KOG1-TAP ∆tor1 cells (from UniProt P32600 1-2474; P38873 1-1557; P41318 1-303; Q08921 1-799) (complex)”, for which the binding result is “binds”.

The record behind these values is PMC10023571, “EGOC inhibits TOROID polymerization by structurally activating TORC1” (Nature Structural & Molecular Biology, 2023).
